This is an account of results in PubChem BioAssay AID493014 (National Center for Advancing Translational Sciences (NCATS), 2011).

What is called AC50 is the concentration at which the activity in the assay is half-maximal.

Some of the results follow. Shown are side measurements of this screen, not its main read-out; they come without a call. Most of these compounds were active or inconclusive in the main read-out, so they are no random draw. Potencies come from curve fits of mixed quality, noted in brackets.

This test in a line: qHTS Assay to Find Inhibitors of Chronic Active B-Cell Receptor Signaling. Particulars: ABC-DLBCL IkBa-CBG/CBR reporter, luminescence ratio (green luciferase fused to IkBa over red control in TMD8 lymphoma cells), 4 h. In a few lines:
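Cell line TMD8 (human ABC DLBCL), stably expressing tet-inducible CBG68-IkBa fusion and CBR; IMDM/0.5% FBS; cpd up to 46 uM; dox induction, 4 h, 37C/5% CO2; dual luminescence; green/red ratio; MG132 control.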
On the technique in general: In qHTS, concentration-response curves come from the screen itself.

[1] abbreviates: measured here: CBR red luminescence, cell number.

Regarding `CCc1cc(=O)oc2cc3occ(C)c3cc12`, the AC50 under setting [1] was 0.0146 µM [rising, full curve, poor fit].

On to `O=C(CN1C(=O)/C(=C\c2ccc(C(F)(F)F)cc2)Sc2ccccc21)NCc1ccco1`, for which the half-maximal activity concentration (AC50) under setting [1] was 23.1 µM [rising, single point].

`Cc1cc(OC(F)F)ccc1NC(=S)NC1CCCC1`: the concentration at half-maximal activity (AC50) under setting [1] is 1.12 µM [rising, partial curve].

As for `O=C(N/N=C\c1ccc(-c2ccc([N+](=O)[O-])cc2)o1)c1ccc2c(c1)OCO2`, the half-maximal activity concentration (AC50) under setting [1] is 3.66 µM [falling, full curve].

As for `COc1ccccc1N1CCN(C(=O)CSc2nc(C)c(C)c(=O)[nH]2)CC1`, the AC50 under setting [1] was 1.58 µM [falling, full curve].

On to `COc1ccc(OC)c(CN(CCN2CCOCC2)C(=O)Nc2ccccc2)c1`, for which the AC50 under setting [1] was 2.06 µM [rising, partial curve, poor fit].

As for `Clc1ccc(-n2nnnc2-c2cnc3ccccc3c2-c2ccccc2)cc1`, the AC50 under setting [1] is 20 µM [falling, partial curve, poor fit].

Turning to `CCN(CC)S(=O)(=O)c1ccc(O)c(C(=O)OCC(=O)Nc2ccc(OC(F)(F)F)cc2)c1`, under setting [1], the concentration at half-maximal activity (AC50) is 11.2 µM [rising, partial curve, poor fit].

For `CC1(C)CC(C)(c2ccc(O)cc2O)N(c2ccc3ccccc3c2)C(=S)N1` (stereo not given), the AC50 under setting [1] was 8.2 µM [falling, partial curve, poor fit].

With `O=C(O)c1ccc(COc2ccc3c4c(c(=O)oc3c2)CCC4)o1`, the concentration at half-maximal activity (AC50) under setting [1] was 1.78 µM [falling, full curve, poor fit].

Regarding `Nc1ncnc2nc(SCCOc3ccc(Cl)cc3)[nH]c12`, under setting [1], the AC50 was 4.11 µM [rising, full curve, poor fit].

`O=c1cc(-c2ccccc2)nc2nc(CCc3ccccc3)[nH]n12`: the half-maximal activity concentration (AC50) under setting [1] was 2.06 µM [falling, full curve].

On to `C=CCC[C@@H](Cc1ccc(F)cc1)C(=O)OC[C@@H](Cc1c[nH]c2ccccc12)NC(=O)[C@H](CC=C)CC(=O)N(CCO)Cc1ccccc1`, for which the half-maximal activity concentration (AC50) under setting [1] is 18.4 µM [falling, partial curve, poor fit].

Consider `CCCNC(=O)C/C(C)=N/NC(=O)C(=O)Nc1ccccn1`, for which the half-maximal activity concentration (AC50) under setting [1] was 1.41 µM [falling, full curve, poor fit].

Consider `CN(C)S(=O)(=O)c1ccc(C(=O)NCC2CC2(Cl)Cl)cc1` (stereo not given), for which the concentration at half-maximal activity (AC50) under setting [1] is 7.94 µM [falling, full curve, poor fit].

With `COc1ccc(S(=O)(=O)N2CCCCC2)cc1NC(=O)c1[nH]c(C)c(C(C)=O)c1C`, under setting [1], the AC50 was 3.66 µM [rising, full curve, poor fit].

Regarding `O=c1c2ccccc2sn1-c1cc(S(=O)(=O)N2CCOCC2)ccc1N1CCCC1`, under setting [1], the concentration at half-maximal activity (AC50) was 18.4 µM [rising, single point].

As to `CC(C)Cn1c(N)c(C(=O)NCC2CCCO2)c2nc3ccccc3nc21` (stereo not given), the AC50 under setting [1] is 12.6 µM [falling, partial curve, poor fit].

Regarding `Cc1cc(-c2[nH]nc3c2C(c2cccc(O)c2)C(C#N)=C(N)O3)c(C)s1` (stereo not given), the concentration at half-maximal activity (AC50) under setting [1] was 32.6 µM [falling, single point].

For `COc1ccccc1OCCNC(=O)C(=O)c1c[nH]c2ccccc12`, under setting [1], the concentration at half-maximal activity (AC50) was 3.98 µM [falling, full curve, poor fit].

On to `O=C(NCC1CCCO1)c1cc2c([nH]c3ccccc32)c(-c2cccc(Br)c2)n1` (stereo not given), for which the AC50 under setting [1] is 0.631 µM [falling, full curve, poor fit].

For the compound `Cn1c(CN2CCC(C(N)=O)CC2)c(C#N)c2ccccc21`, the AC50 under setting [1] was 0.366 µM [falling, full curve, poor fit].

Turning to `CC(C)NC1=C(Cl)C(=O)c2ccccc2C1=O`, under setting [1], the AC50 was 4.11 µM [rising, single point].

Regarding `CCN(C(=O)COC(=O)c1ccc(C)c(S(=O)(=O)N2CCCCC2)c1)C1CCS(=O)(=O)C1` (stereo not given), the AC50 under setting [1] is 14.6 µM [falling, partial curve].

`O=C(Nc1ccc([N+](=O)[O-])cc1Br)c1cc2ccccc2nc1Cl`: the AC50 under setting [1] was 5.62 µM [rising, full curve, poor fit].

With `O=C1C=C(c2ccccc2)C[C@@H](c2ccc(Cl)cc2)C1`, under setting [1], the half-maximal activity concentration (AC50) is 16.4 µM [rising, single point].

Take `O=C(CCl)Nc1ccc(-c2ccccc2)cc1`: the AC50 is 35.5 µM [falling, partial curve, poor fit] under setting [1] and 7.08 µM [rising, partial curve, poor fit] (measured here: IkBa-CBG green luminescence).

For `CC1(O)CC(c2ccc(Cl)cc2)=NN1C(=O)c1ccc(Cl)cc1` (stereo not given), the AC50 under setting [1] is 11.2 µM [falling, partial curve, poor fit].

Consider `Cc1ccc(CNC(=O)COC(=O)[C@@H]2CC(O)CN2S(=O)(=O)c2ccc3c(c2)OCCO3)cc1` (stereo not given in full), for which the concentration at half-maximal activity (AC50) under setting [1] is 1.84 µM [rising, full curve, poor fit].

Turning to `O=c1[nH]cccc1-c1nc2ccccc2n1Cc1cccc(Cl)c1`, the concentration at half-maximal activity (AC50) under setting [1] was 1 µM [rising, partial curve].

With `O=C(Nc1ccc(F)cc1)C(Cc1ccccc1)n1cccc1` (stereo not given), the AC50 under setting [1] is 0.708 µM [rising, full curve, poor fit].

Consider `COc1cccc(C(=O)O/N=C(\N)c2ccc([N+](=O)[O-])cc2)c1OC`, for which the AC50 under setting [1] was 0.224 µM [rising, full curve, poor fit].

For the compound `O=C(Nc1ccccn1)c1ccc2ccccc2n1`, the AC50 under setting [1] is 10 µM [falling, partial curve].

As for `COC(=O)C(C)Sc1ncnc2c1nnn2-c1ccc(F)cc1` (stereo not given), under setting [1], the AC50 was 7.94 µM [falling, partial curve].

Consider `COc1cc(/C=C/C(O)=C/C(=O)/C=C/c2ccc(O)cc2)ccc1O`, for which, under setting [1], the AC50 was 29.1 µM [falling, single point].

As to `CCCCN1Cc2c(nc3cc(-c4ccco4)[nH]n3c2=O)C1=O`, under setting [1], the AC50 is 20 µM [falling, partial curve, poor fit].

For `Cc1cc(C)cc(NC(=O)c2nnn(Cc3cc(C)ccc3C)c2N)c1`, under setting [1], the AC50 was 6.51 µM [falling, partial curve].

As for `CCCCCCCNC(=O)C1(CC2CC(c3cccc(Br)c3)=NO2)CCN(C(=O)OC(C)(C)C)CC1` (stereo not given), the AC50 under setting [1] is 5.62 µM [rising, single point].

On to `O=C(Nc1ccccc1C(=O)Nc1nnc(C(F)(F)F)s1)c1ccccc1`, for which the AC50 under setting [1] was 4.47 µM [falling, full curve, poor fit].
